Binding data for 1 molecule are collected here from paper PMC11088158.

Results are given in words; binding and its absence hold for the method and conditions named. In cells and extracts the contact can be indirect. Some results given as binding are weak or reduced against the parent protein; the word gives no strength.

This assay has as its target T1, NLRP4E (mouse (endogenous in oocytes)) (UniProt Q66X19).
T1 sequence: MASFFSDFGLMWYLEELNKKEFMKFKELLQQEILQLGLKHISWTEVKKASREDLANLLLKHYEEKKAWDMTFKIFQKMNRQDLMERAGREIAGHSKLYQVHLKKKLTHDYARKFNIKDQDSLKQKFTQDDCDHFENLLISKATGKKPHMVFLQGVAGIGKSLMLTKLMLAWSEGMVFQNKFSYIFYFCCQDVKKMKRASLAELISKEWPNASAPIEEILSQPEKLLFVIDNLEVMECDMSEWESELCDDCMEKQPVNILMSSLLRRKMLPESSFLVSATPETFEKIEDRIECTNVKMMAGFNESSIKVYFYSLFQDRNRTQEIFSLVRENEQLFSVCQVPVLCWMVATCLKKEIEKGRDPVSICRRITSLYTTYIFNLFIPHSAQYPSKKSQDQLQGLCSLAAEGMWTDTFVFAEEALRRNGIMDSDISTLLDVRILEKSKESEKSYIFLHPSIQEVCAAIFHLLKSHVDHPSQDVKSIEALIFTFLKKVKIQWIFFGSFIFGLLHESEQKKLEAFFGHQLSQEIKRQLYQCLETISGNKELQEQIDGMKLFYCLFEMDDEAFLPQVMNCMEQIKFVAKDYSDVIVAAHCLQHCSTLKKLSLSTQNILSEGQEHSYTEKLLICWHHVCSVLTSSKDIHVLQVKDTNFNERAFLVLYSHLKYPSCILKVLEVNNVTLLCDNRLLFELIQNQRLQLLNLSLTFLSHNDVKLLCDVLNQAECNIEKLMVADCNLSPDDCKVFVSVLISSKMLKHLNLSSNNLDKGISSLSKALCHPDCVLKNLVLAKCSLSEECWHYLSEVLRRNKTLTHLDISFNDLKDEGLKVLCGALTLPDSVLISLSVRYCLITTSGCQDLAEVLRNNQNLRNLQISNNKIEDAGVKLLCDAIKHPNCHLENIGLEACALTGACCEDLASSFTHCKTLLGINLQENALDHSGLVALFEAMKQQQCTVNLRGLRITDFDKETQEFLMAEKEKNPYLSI
As to the kind of experiment: co-IP; antibody bound to protein A/G, incubated overnight at 4 °C with precleaned mouse oocyte lysate in IP buffer, washed three times, western blot; both proteins endogenous. On the technique in general: A western blot detects proteins with antibodies after separation by electrophoresis.

B1: G protein-regulated inducer of neurite outgrowth 1 (GRIN1) (protein, UniProt Q3UNH4 1-932)
chain: MRDCCSSPKAIPAPPRHALDQSLGMDPRHTSSSGAAEGASCSERPAGSLACPSPNCSPLPETPRAHGALTSDNSGTTLFGKPEPMSSAEATPTASEIRNPVFSGKMDGNSLKQADSTSTRKEEAGSLRNEESMLKGKAEPMIYGKGEPGTVGRVDCTASGAENSGSLGKVDMPCSSKVDIVSPGGDNAGSLRKVETISSGKMDPKTENVMHSRRERPGSTGEGDLVSLRENDMKPPDNTDSASTKKTDPEFSGKLTPGSSGKTELVSSVTVAPVTSENVNPVCSGGAGPAAVGNSETLSSVKKDPQLLGKKEAVSSGEGGSVSVRMAETVSARQPEGMFPAKTDSTSSNSTGPSGRADPVSLRNSELVSPVKPERLSSGQAERVSLVKTETLSSGKEDPRSSRRVDHTTVTGNMQTSQKGNPESSGKTDLGSSSSGDTRSLGTWGSLSAAKAEVTEGKGDPQPWKKASLPASEKTDPLASSKAGSASQGKAETVSPGEVDAMTLGKTVPTSSGKTALVSPGKVDLMTSERAEGIPELQASEKGNPVNSTRVDTGATGSTEPKSGVKVITQIPGATSPGKVETPSLQKEQPQLSEKTDPSRKVDPPTTVEPVSLGKADSASPSPRKAESQTSAKTVPQAPDKATSSLRQSDGTPYSSAQPQRDTRSIGSLPEREPSASTSQKDLAAAAAQKSPSAEAAAPPPGPRTRDNFTKAPSWDAGAPPPREDAGTQAGAQACVSVAVSPMSPQDGAGGPAFSFQAAPRAPSPAPRPPSRRDAGLQVSLGAAETRSVATGPMTPQAAAPPAVPPVFPEVRVRPGSVLAAALAPQEATEPVRDVSWDEKGMTWEVYGASMEVEVLGMAIQKHLERQIEEHGRQGAPAPAPPPAVRAGPGRAGSVRTAPAEGAAKRPPGLFRALLQSVRRPRCCSRAGPTAE
For the molecule B1, the binding entry is “binds”.
